{
  "source": "the supplement of paper PMC8728848",
  "assay_in_all_cases": "glycan array binding signal (z-score within array); higher = stronger binding",
  "conditions_in_all_cases": "glycan notation: IUPAC condensed, linker removed",
  "key": {"[1]": {"target": "Fuc(a1-3)[Gal(b1-4)]GlcNAc(b1-3)Gal(b1-4)[Fuc(a1-3)]GlcNAc", "how_it_was_run": "(§1)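 Glycan array data came from 3228 arrays in the Consortium for Functional Glycomics database, and only arrays with an available protein sequence were kept. Glycan names were put into IUPAC-condensed notation, and columns mapping to the same glycan were averaged. The binding signal is a within-array Z-score, averaged across arrays of one protein sequence run at different concentrations or buffers and across linkers. A negative Z-score can be read as non-binding.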"}, "[2]": {"target": "Fuc(a1-3)[Gal(b1-4)]GlcNAc(b1-3)Gal(b1-4)[Fuc(a1-3)]GlcNAc(b1-3)Gal(b1-4)[Fuc(a1-3)]GlcNAc", "how_it_was_run": "as §1"}, "[3]": {"target": "Fuc(a1-3)[Gal(b1-4)]GlcNAc(b1-3)GalNAc", "how_it_was_run": "as §1"}, "[4]": {"target": "Fuc(a1-3)[Gal(b1-4)]GlcNAc(b1-6)GalNAc", "how_it_was_run": "as §1"}, "[5]": {"target": "Fuc(a1-3)[Gal(b1-4)]GlcNAc(b1-6)[Gal(b1-3)GlcNAc(b1-3)]Gal(b1-4)Glc", "how_it_was_run": "as §1"}, "[6]": {"target": "Fuc(a1-3)[Gal(b1-4)]GlcNAc6S", "how_it_was_run": "as §1"}, "[7]": {"target": "Fuc(a1-3)[Gal3S(b1-4)]Glc", "how_it_was_run": "as §1"}, "[8]": {"target": "Fuc(a1-3)[Gal3S(b1-4)]GlcNAc", "how_it_was_run": "as §1"}, "[9]": {"target": "Fuc(a1-3)[Gal3S(b1-4)]GlcNAc6S", "how_it_was_run": "as §1"}, "[10]": {"target": "Fuc(a1-3)[GalNAc(b1-4)]GlcNAc", "how_it_was_run": "as §1"}, "[11]": {"target": "Fuc(a1-3)[GalNAc(b1-4)]GlcNAc6S", "how_it_was_run": "as §1"}, "[12]": {"target": "Fuc(a1-4)GlcNAc", "how_it_was_run": "as §1"}, "[13]": {"target": "Fuc(b1-3)GlcNAc", "how_it_was_run": "as §1"}, "[14]": {"target": "Gal(a1-2)Gal", "how_it_was_run": "as §1"}, "[15]": {"target": "Gal(a1-3)Gal", "how_it_was_run": "as §1"}, "[16]": {"target": "Gal(a1-3)Gal(b1-3)GlcNAc", "how_it_was_run": "as §1"}, "[17]": {"target": "Gal(a1-3)Gal(b1-3)GlcNAc(b1-2)Man", "how_it_was_run": "as §1"}, "[18]": {"target": "Gal(a1-3)Gal(b1-3)GlcNAc(b1-2)Man(a1-3)[Gal(a1-3)Gal(b1-3)GlcNAc(b1-2)Man(a1-6)]Man(b1-4)GlcNAc(b1-4)GlcNAc", "how_it_was_run": "as §1"}, "[19]": {"target": "Gal(a1-3)Gal(b1-3)GlcNAc(b1-3)GalNAc", "how_it_was_run": "as §1"}, "[20]": {"target": "Gal(a1-3)Gal(b1-3)GlcNAc(b1-6)GalNAc", "how_it_was_run": "as §1"}, "[21]": {"target": "Gal(a1-3)Gal(b1-3)[Fuc(a1-4)]GlcNAc(b1-2)Man(a1-3)[Gal(a1-3)Gal(b1-3)[Fuc(a1-4)]GlcNAc(b1-2)Man(a1-6)]Man(b1-4)GlcNAc(b1-4)GlcNAc", "how_it_was_run": "as §1"}, "[22]": {"target": "Gal(a1-3)Gal(b1-4)Glc", "how_it_was_run": "as §1"}, "[23]": {"target": "Gal(a1-3)Gal(b1-4)GlcNAc", "how_it_was_run": "as §1"}, "[24]": {"target": "Gal(a1-3)Gal(b1-4)GlcNAc(b1-2)Man", "how_it_was_run": "as §1"}, "[25]": {"target": "Gal(a1-3)Gal(b1-4)GlcNAc(b1-2)Man(a1-3)[Gal(a1-3)Gal(b1-4)GlcNAc(b1-2)Man(a1-6)]Man(b1-4)GlcNAc(b1-4)GlcNAc", "how_it_was_run": "as §1"}, "[26]": {"target": "Gal(a1-3)Gal(b1-4)GlcNAc(b1-3)GalNAc", "how_it_was_run": "as §1"}, "[27]": {"target": "Gal(a1-3)Gal(b1-4)GlcNAc(b1-6)GalNAc", "how_it_was_run": "as §1"}, "[28]": {"target": "Gal(a1-3)Gal(b1-4)[Fuc(a1-3)]GlcNAc", "how_it_was_run": "as §1"}, "[29]": {"target": "Gal(a1-3)Gal(b1-4)[Fuc(a1-3)]GlcNAc(b1-2)Man(a1-3)[Gal(a1-3)Gal(b1-4)[Fuc(a1-3)]GlcNAc(b1-2)Man(a1-6)]Man(b1-4)GlcNAc(b1-4)GlcNAc", "how_it_was_run": "as §1"}, "[30]": {"target": "Gal(a1-3)GalNAc", "how_it_was_run": "as §1"}, "[31]": {"target": "Gal(a1-3)[Gal(a1-4)]Gal(b1-4)GlcNAc", "how_it_was_run": "as §1"}, "[32]": {"target": "Gal(a1-4)Gal(b1-3)GlcNAc(b1-2)Man(a1-3)[Gal(a1-4)Gal(b1-3)GlcNAc(b1-2)Man(a1-6)]Man(b1-4)GlcNAc(b1-4)GlcNAc", "how_it_was_run": "as §1"}, "[33]": {"target": "Gal(a1-4)Gal(b1-4)Glc", "how_it_was_run": "as §1"}, "[34]": {"target": "Gal(a1-4)Gal(b1-4)GlcNAc", "how_it_was_run": "as §1"}, "[35]": {"target": "Gal(a1-4)Gal(b1-4)GlcNAc(b1-2)Man(a1-3)[Gal(a1-4)Gal(b1-4)GlcNAc(b1-2)Man(a1-6)]Man(b1-4)GlcNAc(b1-4)GlcNAc", "how_it_was_run": "as §1"}, "[36]": {"target": "Gal(a1-4)Gal(b1-4)GlcNAc(b1-3)Gal(b1-4)Glc", "how_it_was_run": "as §1"}, "[37]": {"target": "Gal(a1-4)GlcNAc", "how_it_was_run": "as §1"}, "[38]": {"target": "Gal(a1-6)Glc", "how_it_was_run": "as §1"}},
  "note": "Some of the results follow.",
  "data": [
    {"binder": "Wzz (Escherichia coli) (protein) MRTWKFPSVRVMMRVENNNVSGQNHDPEQIDLIDLLVQLWRGKMTIIISVIVAIVLAIGYLAVAKEKWTSTAIITQPDVGQIAGYNNAMNVIYGQAAPKVSDLQETLIGRFSSAFSALAETLDNQEEPEKLTIEPSVKNQQLPLTVSYVGQTAEGAQMKLAQYIQQVDDKVNQELEKDLKDNIALGRKNLQDSLRTQEVVAQEQKDLRIRQIQEALQYANQAQVTKPQIQQTGEDITQDTLFLLGSEALESMIKHEATRPLVFSSNYYQTRQNLLDIDNLDVDKLDIHAYLYVMKPTLPIRRDSPKKAITLILAVLLGGMVGAGIVLGRNALRNYNAK", "values": [
      {"measurement": "glycan array binding signal (z-score)", "setting": "[1]", "result": 0.002},
      {"measurement": "glycan array binding signal (z-score)", "setting": "[2]", "result": -0.043},
      {"measurement": "glycan array binding signal (z-score)", "setting": "[3]", "result": -0.01},
      {"measurement": "glycan array binding signal (z-score)", "setting": "[4]", "result": 0.129},
      {"measurement": "glycan array binding signal (z-score)", "setting": "[5]", "result": -0.703},
      {"measurement": "glycan array binding signal (z-score)", "setting": "[6]", "result": 0.36},
      {"measurement": "glycan array binding signal (z-score)", "setting": "[7]", "result": -0.538},
      {"measurement": "glycan array binding signal (z-score)", "setting": "[8]", "result": 0.259},
      {"measurement": "glycan array binding signal (z-score)", "setting": "[9]", "result": -0.588},
      {"measurement": "glycan array binding signal (z-score)", "setting": "[10]", "result": -0.363},
      {"measurement": "glycan array binding signal (z-score)", "setting": "[11]", "result": -0.34},
      {"measurement": "glycan array binding signal (z-score)", "setting": "[12]", "result": -0.001},
      {"measurement": "glycan array binding signal (z-score)", "setting": "[13]", "result": 0.034},
      {"measurement": "glycan array binding signal (z-score)", "setting": "[14]", "result": -0.57},
      {"measurement": "glycan array binding signal (z-score)", "setting": "[15]", "result": 1.22},
      {"measurement": "glycan array binding signal (z-score)", "setting": "[16]", "result": -0.218},
      {"measurement": "glycan array binding signal (z-score)", "setting": "[17]", "result": 0.855},
      {"measurement": "glycan array binding signal (z-score)", "setting": "[18]", "result": 1.4},
      {"measurement": "glycan array binding signal (z-score)", "setting": "[19]", "result": -0.04},
      {"measurement": "glycan array binding signal (z-score)", "setting": "[20]", "result": -0.032},
      {"measurement": "glycan array binding signal (z-score)", "setting": "[21]", "result": 1.41},
      {"measurement": "glycan array binding signal (z-score)", "setting": "[22]", "result": 0.834},
      {"measurement": "glycan array binding signal (z-score)", "setting": "[23]", "result": 0.318},
      {"measurement": "glycan array binding signal (z-score)", "setting": "[24]", "result": -0.518},
      {"measurement": "glycan array binding signal (z-score)", "setting": "[25]", "result": -0.26},
      {"measurement": "glycan array binding signal (z-score)", "setting": "[26]", "result": 0.187},
      {"measurement": "glycan array binding signal (z-score)", "setting": "[27]", "result": -0.648},
      {"measurement": "glycan array binding signal (z-score)", "setting": "[28]", "result": -0.969},
      {"measurement": "glycan array binding signal (z-score)", "setting": "[29]", "result": -0.412},
      {"measurement": "glycan array binding signal (z-score)", "setting": "[30]", "result": -1.05},
      {"measurement": "glycan array binding signal (z-score)", "setting": "[31]", "result": 0.421},
      {"measurement": "glycan array binding signal (z-score)", "setting": "[32]", "result": 0.168},
      {"measurement": "glycan array binding signal (z-score)", "setting": "[33]", "result": -0.111},
      {"measurement": "glycan array binding signal (z-score)", "setting": "[34]", "result": -0.183},
      {"measurement": "glycan array binding signal (z-score)", "setting": "[35]", "result": -0.086},
      {"measurement": "glycan array binding signal (z-score)", "setting": "[36]", "result": 0.032},
      {"measurement": "glycan array binding signal (z-score)", "setting": "[37]", "result": -1.12},
      {"measurement": "glycan array binding signal (z-score)", "setting": "[38]", "result": -0.8}
    ]}
  ]
}
